Measurements reported in PubChem BioAssay AID1259308 (NCATS, 2017)

Screen: 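Genes whose loss raises luciferase production in HEK293 cells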 (primary screen)
Cells: human HEK293 embryonic kidney cells stably expressing firefly luciferase (HEK-CMV-Luc2-Hygro)
Knock-down reagent: single siRNA against human genes, 0.8 pmol siRNA per well
Duration: 72 h
Read-out: 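Luciferase light (ONE-Glo) measured on one replicate plate set and viability (CellTiter-Glo) on the other, scaled to a negative control siRNA, with robust z-scores and luciferase per cell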
Reading the numbers: total luciferase, z-score: higher = more reporter protein produced
Call rule: 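Active when the median/MAD z-score for overall luciferase is greater than 3; a gene was taken forward for validation with new siRNAs if at least two of its three siRNAs passed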
Calls: active = raised luciferase; inactive = no rise
Shown is a random part of about 59,000 deposited reagents. About 1,510 of them (2.6%) count as active. 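Calls use total luciferase alone and ignore viability, so some active siRNAs may act by altering cell number.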 The numbers tell different reagents against one gene apart. Further read-outs or replicates are left out here. No sequences are given here.

gene knocked down	reagent	total luciferase, z-score	Call
CUTA	1	-0.641	inactive
CUTA	2	0.617	inactive
CUTA	3	0.096	inactive
OR1L3	1	3.62	active
OR1L3	2	-1.55	inactive
OR1L3	3	0.15	inactive
HSD17B11	1	2.09	inactive
HSD17B11	2	-0.991	inactive
HSD17B11	3	-1.14	inactive
IL19	1	-1.92	inactive
IL19	2	2.35	inactive
IL19	3	1.99	inactive
SBNO2	1	1.38	inactive
SBNO2	2	-0.175	inactive
SBNO2	3	-0.443	inactive
RPS17P10	1	-0.592	inactive
RPS17P10	2	3.19	active
RPS17P10	3	-0.842	inactive
MYRIP	1	-0.417	inactive
MYRIP	2	-0.437	inactive
MYRIP	3	0.951	inactive
LEAP2	1	-1.55	inactive
LEAP2	2	-1.19	inactive
LEAP2	3	1.66	inactive
NIBAN3	1	1.1	inactive
NIBAN3	2	-0.315	inactive
NIBAN3	3	-2.71	inactive
CD209	1	-1.35	inactive
CD209	2	-2.1	inactive
CD209	3	-1.23	inactive
MMAA	1	-0.014	inactive
MMAA	2	0.359	inactive
MMAA	3	2.24	inactive
ZMYM5	1	1.92	inactive
ZMYM5	2	1.58	inactive
ZMYM5	3	-0.729	inactive
CLPB	1	0.973	inactive
CLPB	2	0.394	inactive
CLPB	3	-0.385	inactive
LOC644215	1	-0.394	inactive
LOC644215	2	0.828	inactive
LOC644215	3	-0.723	inactive
MS4A15	1	2.48	inactive
MS4A15	2	4.28	active
MS4A15	3	0.698	inactive
TMEM92	1	0.516	inactive
TMEM92	2	0.937	inactive
TMEM92	3	0.198	inactive
AP1G1	1	-1.1	inactive
AP1G1	2	0.0753	inactive
AP1G1	3	1.52	inactive
MMS22L	1	1.4	inactive
MMS22L	2	-0.406	inactive
MMS22L	3	0.17	inactive
ZNF451	1	0.0598	inactive
ZNF451	2	0.0985	inactive
ZNF451	3	-1.85	inactive
OR2T12	1	-0.398	inactive
OR2T12	2	0.415	inactive
OR2T12	3	-1.99	inactive
MPZL1	1	0.983	inactive
MPZL1	2	1.54	inactive
MPZL1	3	0.788	inactive
GCNT2P1	1	-0.658	inactive
GCNT2P1	2	-1.57	inactive
GCNT2P1	3	0.607	inactive
MUC2	1	0.774	inactive
MUC2	2	1.71	inactive
MUC2	3	-1.18	inactive
ACCS	1	-0.807	inactive
ACCS	2	-0.278	inactive
ACCS	3	-0.831	inactive
THEM5	1	-0.758	inactive
THEM5	2	-1.08	inactive
THEM5	3	-1.06	inactive

Laid out differently: 7 of the entries above
gene knocked down | reagent | total luciferase, z-score | Call
CLPB | 1 | 0.973 | inactive
CLPB | 2 | 0.394 | inactive
CLPB | 3 | -0.385 | inactive
LOC644215 | 1 | -0.394 | inactive
LOC644215 | 2 | 0.828 | inactive
LOC644215 | 3 | -0.723 | inactive
MS4A15 | 1 | 2.48 | inactive
